Some peptides are written in HELM: one residue between dots, names in brackets for other building blocks, links after the first $.
Experiment: general procedure: Fmoc solid-phase peptide synthesis; Fmoc-Tyr(tBu)-SASRIN
Settings: TFA salt; for final HPLC purity: oxidative folding step

For “PEPTIDE1{[CA1-Succ].C.C.E.L.C.C.N.P.A.C.A.G.C.Y}$PEPTIDE1,PEPTIDE1,2:R3-7:R3|PEPTIDE1,PEPTIDE1,3:R3-11:R3|PEPTIDE1,PEPTIDE1,6:R3-14:R3$$$V2.0”, which “final HPLC purity” value is on record?
Its value is >98%.

And the “final HPLC purity” value (exchanged to acetate salt)?
Its value is >80%.

And the “crude HPLC purity” value (whole synthesis, scale of the general procedure 10 g polymer, 0.6 mmol/g loading, exchanged to acetate salt)?
The value was “around 70%”.

Reference: patent publication US7608242B2 (GE Healthcare Limited, priority 2001, dated 2009)
